Results are given in words; binding and its absence hold for the method and conditions named. Binding seen in cells or lysates may run through a third protein. These calls come from enrichment with a bait or labelling near it, and not all partners need be listed.

Protein sequences, listed by entry. Tags and fused reporters are not part of them. Residues count along the entry.
Str-GFP-NM1-(Q123.T) (Q9WTI7, residues 731-1063): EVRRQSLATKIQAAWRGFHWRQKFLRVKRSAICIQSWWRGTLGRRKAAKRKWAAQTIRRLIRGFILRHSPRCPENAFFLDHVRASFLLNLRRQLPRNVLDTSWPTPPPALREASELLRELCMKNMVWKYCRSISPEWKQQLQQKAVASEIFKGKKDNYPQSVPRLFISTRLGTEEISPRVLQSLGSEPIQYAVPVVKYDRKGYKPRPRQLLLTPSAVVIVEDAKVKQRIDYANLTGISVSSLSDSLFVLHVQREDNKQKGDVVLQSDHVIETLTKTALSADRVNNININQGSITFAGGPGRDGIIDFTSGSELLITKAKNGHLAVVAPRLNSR
Str-IQ12-His (Q9WTI7, residues 731-789): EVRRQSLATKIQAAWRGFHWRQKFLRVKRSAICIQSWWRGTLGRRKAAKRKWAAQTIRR
UniProt P08238: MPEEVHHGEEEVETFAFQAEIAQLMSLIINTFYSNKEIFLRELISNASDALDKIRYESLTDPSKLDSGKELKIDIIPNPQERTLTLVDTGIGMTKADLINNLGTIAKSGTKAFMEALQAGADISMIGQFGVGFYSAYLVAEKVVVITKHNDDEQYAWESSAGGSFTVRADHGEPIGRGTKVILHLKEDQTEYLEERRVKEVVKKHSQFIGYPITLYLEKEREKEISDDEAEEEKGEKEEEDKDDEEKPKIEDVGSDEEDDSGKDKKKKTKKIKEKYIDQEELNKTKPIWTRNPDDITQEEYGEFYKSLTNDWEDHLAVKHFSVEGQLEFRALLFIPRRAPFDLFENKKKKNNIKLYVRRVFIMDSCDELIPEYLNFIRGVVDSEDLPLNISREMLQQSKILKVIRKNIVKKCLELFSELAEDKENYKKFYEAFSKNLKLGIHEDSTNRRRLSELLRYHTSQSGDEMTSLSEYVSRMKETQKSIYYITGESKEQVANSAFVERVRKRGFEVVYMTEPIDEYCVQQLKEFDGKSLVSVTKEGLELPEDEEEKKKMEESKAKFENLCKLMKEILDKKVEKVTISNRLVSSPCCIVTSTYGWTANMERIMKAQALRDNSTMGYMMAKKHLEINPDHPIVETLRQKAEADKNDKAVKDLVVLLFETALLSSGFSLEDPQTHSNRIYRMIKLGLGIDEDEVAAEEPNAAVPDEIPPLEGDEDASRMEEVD
UniProt O00410: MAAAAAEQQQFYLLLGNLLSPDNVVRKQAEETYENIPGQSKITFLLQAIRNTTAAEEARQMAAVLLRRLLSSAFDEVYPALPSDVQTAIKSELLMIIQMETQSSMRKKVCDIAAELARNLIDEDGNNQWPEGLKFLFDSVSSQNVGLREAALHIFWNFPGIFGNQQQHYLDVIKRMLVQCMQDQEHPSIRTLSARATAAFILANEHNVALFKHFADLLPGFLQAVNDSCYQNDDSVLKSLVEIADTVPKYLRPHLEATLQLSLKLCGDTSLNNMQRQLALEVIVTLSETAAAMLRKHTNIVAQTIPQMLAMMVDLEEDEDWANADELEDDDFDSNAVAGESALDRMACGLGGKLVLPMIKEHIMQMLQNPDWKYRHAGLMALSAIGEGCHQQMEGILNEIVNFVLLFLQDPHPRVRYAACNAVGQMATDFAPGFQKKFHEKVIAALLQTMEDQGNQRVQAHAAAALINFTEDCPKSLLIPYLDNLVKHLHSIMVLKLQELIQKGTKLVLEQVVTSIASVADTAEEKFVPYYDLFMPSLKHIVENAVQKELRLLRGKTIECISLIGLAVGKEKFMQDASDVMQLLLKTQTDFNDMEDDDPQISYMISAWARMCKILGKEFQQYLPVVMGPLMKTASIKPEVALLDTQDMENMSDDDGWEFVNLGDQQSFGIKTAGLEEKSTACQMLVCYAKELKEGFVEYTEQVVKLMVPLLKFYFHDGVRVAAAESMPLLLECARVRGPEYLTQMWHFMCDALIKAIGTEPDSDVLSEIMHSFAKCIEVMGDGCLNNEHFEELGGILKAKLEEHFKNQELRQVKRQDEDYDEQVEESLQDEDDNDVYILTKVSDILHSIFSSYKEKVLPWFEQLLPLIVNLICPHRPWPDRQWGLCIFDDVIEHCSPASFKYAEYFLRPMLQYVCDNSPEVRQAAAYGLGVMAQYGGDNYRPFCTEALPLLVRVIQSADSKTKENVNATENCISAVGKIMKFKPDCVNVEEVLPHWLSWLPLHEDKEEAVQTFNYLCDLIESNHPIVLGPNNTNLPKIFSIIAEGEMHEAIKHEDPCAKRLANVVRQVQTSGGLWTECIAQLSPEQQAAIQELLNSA
UniProt Q14974: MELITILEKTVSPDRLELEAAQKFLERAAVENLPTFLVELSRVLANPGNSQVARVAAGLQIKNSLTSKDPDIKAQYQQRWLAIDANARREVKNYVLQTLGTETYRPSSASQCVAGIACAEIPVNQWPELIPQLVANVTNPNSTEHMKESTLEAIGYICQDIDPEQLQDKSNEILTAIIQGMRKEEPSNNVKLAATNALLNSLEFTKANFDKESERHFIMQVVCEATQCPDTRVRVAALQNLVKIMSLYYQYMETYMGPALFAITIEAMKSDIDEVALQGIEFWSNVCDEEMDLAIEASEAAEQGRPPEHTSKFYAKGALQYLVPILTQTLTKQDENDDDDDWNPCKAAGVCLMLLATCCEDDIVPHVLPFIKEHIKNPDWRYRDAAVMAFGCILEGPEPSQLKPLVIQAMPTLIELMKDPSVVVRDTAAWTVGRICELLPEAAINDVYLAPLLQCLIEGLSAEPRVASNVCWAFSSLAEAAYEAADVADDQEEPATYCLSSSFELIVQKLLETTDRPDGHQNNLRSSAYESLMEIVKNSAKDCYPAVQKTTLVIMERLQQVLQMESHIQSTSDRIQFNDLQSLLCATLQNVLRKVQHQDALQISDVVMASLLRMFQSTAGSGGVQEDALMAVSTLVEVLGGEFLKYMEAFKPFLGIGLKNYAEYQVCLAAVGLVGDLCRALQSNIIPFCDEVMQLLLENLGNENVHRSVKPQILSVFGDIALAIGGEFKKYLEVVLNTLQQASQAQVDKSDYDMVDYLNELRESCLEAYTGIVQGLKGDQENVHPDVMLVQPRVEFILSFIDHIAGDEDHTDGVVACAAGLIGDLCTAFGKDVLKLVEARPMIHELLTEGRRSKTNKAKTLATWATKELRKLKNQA

For test [1], the target named is Str-GFP-NM1-(Q123.T) (mouse) (UniProt Q9WTI7). The test is described as follows: affinity purification with mass spectrometry; Str-GFP-NM1-(Q123.T) or Str-GFP expressed in HEK293T; digitonin extract (50 mM HEPES pH 7.4, 150 mM potassium acetate, 5 mM magnesium acetate, 1 mM DTT, 1 mg/ml digitonin), 4 h with StrepTactin resin, biotin elution; stained bands identified by mass spectrometry.

Another test concerns the target Str-IQ12-His (mouse) (UniProt Q9WTI7). The test is described as follows: affinity purification with mass spectrometry; purified Str-IQ12-His added to digitonin extract of suspension HeLa cells (2 mg/ml; 50 mM HEPES pH 7.4, 150 mM NaCl, 75 mM potassium acetate, 5 mM magnesium acetate, 1 mM DTT), 3 h, captured on StrepTactin beads, eluted with 2 mM biotin; SimplyBlue-stained bands identified by MALDI peptide mass fingerprinting; only the target purified.

In the case of “Heat shock protein 90 beta (from UniProt P08238 1-724)”, the binding result (in test [1]; with Str-IQ12-His (mouse)) was “binds” in each case.
For the substance importin 5 (from UniProt O00410 1-1097), the binding result (in test [1]; with Str-IQ12-His (mouse)) was “binds” in each case.
On to importin-β1 (from UniProt Q14974 1-876), for which, in test [1], the binding result is reported as “binds”.

For the origin of these results see article PMC3266300.
